Laboratory results: PubChem BioAssay AID1259254 (NCATS, 2017)

- Aim: 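Genome-wide screen for genes that prevent DNA re-replication in cancer cells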 (primary screen)
- Cell system: human HCT116 colorectal cancer cells
- Reagent: single siRNA against human genes
- Duration: 3 days
- Read-out: 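Imaged Hoechst DNA stain sorts each cell into a cycle phase by DNA amount; per plate, G2 fraction set to 0% for non-targeting and 100% for GMNN siRNA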
- Scale: G2 robust z-score and G2 cells, % of GMNN control: higher = more G2 cells, more excess DNA replication
- Rule for the call: 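An siRNA counts as active if its G2 robust z-score lies at least 5 MADs above the screen median; here such calls match roughly 38% of GMNN control or more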
The whole screen tested about 59,000 reagents; below is a part drawn at random. About 1,550 of them (2.6%) count as active. 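G2 share is only a proxy for re-replication; each gene was hit by three separate siRNAs, and active genes were retested.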 The numbers tell different reagents against one gene apart. Not all columns of the deposit are shown. Not stated in the record: the amount of reagent.

| Gene | reagent no. | G2 robust z-score | G2 cells, % of GMNN control | activity call |
| --- | --- | --- | --- | --- |
| TMCO5A | 1 | 3.15 | 25.1 | inactive |
| TMCO5A | 2 | 1.63 | 14.4 | inactive |
| TMCO5A | 3 | -0.514 | -0.65 | inactive |
| PSKH2 | 1 | -0.97 | -3.85 | inactive |
| PSKH2 | 2 | -0.963 | -3.81 | inactive |
| PSKH2 | 3 | -0.536 | -0.806 | inactive |
| LOC401021 | 1 | -0.299 | 0.866 | inactive |
| LOC401021 | 2 | 0.239 | 4.65 | inactive |
| LOC401021 | 3 | -0.511 | -0.625 | inactive |
| TRIM10 | 1 | -0.748 | -2.3 | inactive |
| TRIM10 | 2 | 3.38 | 26.8 | inactive |
| TRIM10 | 3 | -0.489 | -0.47 | inactive |
| TGFB1I1 | 1 | 0.848 | 8.93 | inactive |
| TGFB1I1 | 2 | -1.09 | -4.72 | inactive |
| TGFB1I1 | 3 | 0.819 | 8.73 | inactive |
| ANAPC2 | 1 | 8.11 | 60 | active |
| ANAPC2 | 2 | 1.93 | 16.6 | inactive |
| ANAPC2 | 3 | 3.82 | 29.9 | inactive |

The list goes on (3 carried over from the part before).
| Gene | reagent no. | G2 robust z-score | G2 cells, % of GMNN control | activity call |
| --- | --- | --- | --- | --- |
| ANAPC2 | 1 | 8.11 | 60 | active |
| ANAPC2 | 2 | 1.93 | 16.6 | inactive |
| ANAPC2 | 3 | 3.82 | 29.9 | inactive |
| PODXL | 1 | 3.47 | 27.4 | inactive |
| PODXL | 2 | 0.971 | 9.8 | inactive |
| PODXL | 3 | 0.151 | 4.03 | inactive |
| WDR76 | 1 | -1.04 | -4.33 | inactive |
| WDR76 | 2 | -0.576 | -1.09 | inactive |
| WDR76 | 3 | -0.163 | 1.82 | inactive |
| CEP57 | 1 | -0.191 | 1.62 | inactive |
| CEP57 | 2 | 0.984 | 9.89 | inactive |
| CEP57 | 3 | 0.182 | 4.25 | inactive |
| SAXO2 | 1 | 2.83 | 22.9 | inactive |
| SAXO2 | 2 | 1.52 | 13.7 | inactive |
| SAXO2 | 3 | 0.777 | 8.43 | inactive |
